Values from PubChem BioAssay AID1671195 (Yale University, 2021).

- Purpose: 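Genes whose knockdown alters LDL uptake in liver cancer cells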 (primary screen)
- Cells: human Huh7 hepatoma cells
- Reagent: siRNA pool against human genes, 18 nM
- Time to read-out: about 2 to 2.5 days of knockdown, then 8 h LDL uptake
- Conditions: DiI-labelled LDL at 30 µg/ml for 8 h, in lipoprotein-deficient serum medium
- Read-out: 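Per-cell DiI-LDL intensity by automated imaging; well means scaled to the plate median and given as a robust z-score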
- Direction: robust z-score: higher = more LDL uptake after knockdown
- Active means: 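a gene counts as active if at least two replicate z-scores exceed ±2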
In all, the deposit lists about 22,000 reagents; below is a random part of them. Of all reagents, about 1,510 (6.9%) were called active. 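Active includes knockdowns raising or lowering LDL uptake; positive z-scores mean more uptake, negative mean less.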 No sequences are given here.

gene | robust z-score, replicate 1 | robust z-score, replicate 2 | robust z-score, replicate 3 | call
PMS1 | -1.62 | -1.12 | -1.08 | inactive
ANKRD2 | -1.99 | -1.73 | -1.74 | inactive
PER2 | -0.708 | -0.153 | -0.205 | inactive
THY1 | 0.488 | 0.277 | 1.34 | inactive
FOXI2 | -1.11 | -1.37 | -1.25 | inactive
ZC3H7A | -0.175 | -1.24 | 0.036 | inactive
CRELD1 | -0.722 | -0.211 | -0.0751 | inactive
WRNIP1 | 0.357 | -0.889 | 0.273 | inactive
GCFC2 | -0.00275 | 1.57 | -0.725 | inactive
TRAT1 | -0.618 | -0.328 | -0.673 | inactive
LOC442146 (retired record) | -2.12 | -2.17 | -2 | active
BRAT1 | -1.01 | -0.37 | -0.18 | inactive
PNN | 1.25 | 0.999 | 2.33 | inactive
LOC441477 (retired record) | 1.16 | 0.797 | 0.467 | inactive
L3HYPDH | -0.583 | 0.0704 | -0.38 | inactive
LSM6 | -0.743 | -0.517 | -0.412 | inactive
CFAP251 | 2.41 | 2.23 | 1.21 | active
LPA | 1.67 | 1.86 | 2.21 | inactive

Single entries from above.
Under “robust z-score, replicate 1”, LPA is entered as 1.67
L3HYPDH, robust z-score, replicate 2 = 0.0704

Next reagents follow.
gene | robust z-score, replicate 1 | robust z-score, replicate 2 | robust z-score, replicate 3 | call
BLOC1S4 | 0.222 | 0.248 | 0.247 | inactive
TMEM248 | -0.17 | -0.297 | 1.16 | inactive
OR6C68 | -0.623 | 0.21 | -0.235 | inactive
LINC00301 | 0.392 | 0.382 | 0.481 | inactive
NUP98 | 0.682 | 0.235 | 0.673 | inactive
ZNF616 | -0.67 | -0.368 | -0.763 | inactive
LOC440120 (retired record) | -0.0919 | -0.229 | -0.177 | inactive
KIAA0232 | -0.281 | -0.313 | 0.66 | inactive
NDFIP1 | 0.275 | 0.659 | 0.365 | inactive
KLF15 | -1.57 | -1.67 | -1.9 | inactive
